No constants are given. Whether binding was seen depends on the method and setting. Binding seen in cells or lysates may run through a third protein.
Target: increased sodium tolerance 1 (IST1) (human (endogenous in moDCs)) (UniProt P53990)
Test: co-IP; endogenous IST1 immunoprecipitated from moDC lysates as for the mass spectrometry; Western blot probed for IST1 and for integrin β2 (goat anti-integrin beta 2/CD18, 1:1,000)

integrin β2 (from UniProt P05107 23-769) (receptor)
binding: no binding
